From US20250326816A1 (KOREA UNIVERSITY RESEARCH AND BUSINESS FOUNDATION, published 2025)
Changes are numbered by the printed parent chain. Numbers in names are those of the source. These are yes or no findings as the source states them, for the method shown. Some binding calls cover weakened binding; strength is not graded here. Sequences can lack the tags named with a protein.

T1: ICOS-L A184 variant fused to antibody Fc domain (LALAPG) (human) (UniProt O75144)
T1 sequence: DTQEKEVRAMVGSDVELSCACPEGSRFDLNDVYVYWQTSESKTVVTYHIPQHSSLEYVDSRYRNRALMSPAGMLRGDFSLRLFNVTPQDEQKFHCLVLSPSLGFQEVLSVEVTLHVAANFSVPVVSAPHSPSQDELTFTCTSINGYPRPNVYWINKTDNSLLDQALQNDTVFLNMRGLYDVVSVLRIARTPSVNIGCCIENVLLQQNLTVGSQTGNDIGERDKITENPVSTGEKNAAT

T2: A184
T2 sequence: T1 sequence

T3: ICOS-L variant Y13 displayed on yeast (ICOS-L-Aga2-FLAG format) (Homo sapiens (Human)) (UniProt O75144)
T3 sequence: T1 sequence with Q51H, H52N, S54N, Y57N, P100Q, S130C

T4: ICOS-L variant Y20 displayed on yeast (ICOS-L-Aga2-FLAG format) (Homo sapiens (Human)) (UniProt O75144)
T4 sequence: T1 sequence with H52S, Y57N, P100Q, K234R

T5: ICOS-L variant Y35 displayed on yeast (ICOS-L-Aga2-FLAG format) (Homo sapiens (Human)) (UniProt O75144)
T5 sequence: T1 sequence with E4D, Q51P, H52N, Y57N, P100Q

T6: ICOS-L variant Y48 displayed on yeast (ICOS-L-Aga2-FLAG format) (Homo sapiens (Human)) (UniProt O75144)
T6 sequence: T1 sequence with Q51P, H52N, Y57N, L74R, P100Q

T7: ICOS-L variant Y8 displayed on yeast (ICOS-L-Aga2-FLAG format) (Homo sapiens (Human)) (UniProt O75144)
T7 sequence: T1 sequence with Q51P, H52N, Y57H, P100Q

B1: ICOS-L variant Y13 (ligand, not shown: small tags and cut ends)
chain: T1 sequence with Q51H, H52N, S54N, Y57N, P100Q, S130C
B2: ICOS-L variant Y13 displayed on yeast (ICOS-L-Aga2-FLAG format) (ligand, not shown: large carriers; small tags and cut ends)
chain: T1 sequence with Q51H, H52N, S54N, Y57N, P100Q, S130C
B3: ICOS-L variant Y35 (ligand, not shown: small tags and cut ends)
chain: T1 sequence with E4D, Q51P, H52N, Y57N, P100Q
B4: ICOS-L variant Y20 displayed on yeast (ICOS-L-Aga2-FLAG format) (ligand, not shown: large carriers; small tags and cut ends)
chain: T1 sequence with H52S, Y57N, P100Q, K234R
B5: ICOS-L variant Y8 displayed on yeast (ICOS-L-Aga2-FLAG format) (ligand, not shown: large carriers; small tags and cut ends)
chain: T1 sequence with Q51P, H52N, Y57H, P100Q
B6: ICOS-L variant Y20 (ligand, not shown: small tags and cut ends)
chain: T1 sequence with H52S, Y57N, P100Q, K234R
B7: ICOS-L variant Y8 fused to antibody Fc domain (LALAPG) (Fc fusion, not shown: a dimerising Fc or GST; small tags and cut ends)
chain: T1 sequence with Q51P, H52N, Y57H, P100Q
B8: ICOS-L variant Y48 (ligand, not shown: small tags and cut ends)
chain: T1 sequence with Q51P, H52N, Y57N, L74R, P100Q
B9: ICOS-L variant Y8_H57N fused to antibody Fc domain (LALAPG) (Fc fusion, not shown: a dimerising Fc or GST; small tags and cut ends)
chain: T1 sequence with Q51P, H52N, Y57N, P100Q
B10: ICOS-L variant Y48 displayed on yeast (ICOS-L-Aga2-FLAG format) (ligand, not shown: large carriers; small tags and cut ends)
chain: T1 sequence with Q51P, H52N, Y57N, L74R, P100Q
B11: ICOS-L A184 variant fused to antibody Fc domain (LALAPG) (Fc fusion, not shown: a dimerising Fc or GST; small tags and cut ends)
chain: T1 sequence
B12: ICOS-L variant Y35 displayed on yeast (ICOS-L-Aga2-FLAG format) (ligand, not shown: large carriers; small tags and cut ends)
chain: T1 sequence with E4D, Q51P, H52N, Y57N, P100Q
B13: ICOS monomer protein (ICOS E21-H129) (receptor, human, UniProt Q9Y6W8 21-129, looked up)
chain: EINGSANYEMFIFHNGGVQILCKYPDIVQQFKMQLLKGGQILCDLTKTKGSGNTVSIKSLKFCHSQLSNNSVSFFLYNLDHSHANYYFCNLSIFDPPPFKVTLTGGYLH
notes: range 21-129; also called wild-type ICOS
B14: Dimeric human ICOS (ICOS-Fc) (Fc fusion, UniProt Q9Y6W8 21-140, looked up)
chain: EINGSANYEMFIFHNGGVQILCKYPDIVQQFKMQLLKGGQILCDLTKTKGSGNTVSIKSLKFCHSQLSNNSVSFFLYNLDHSHANYYFCNLSIFDPPPFKVTLTGGYLHIYESQLCCQLK
notes: range 21-140; Fc at the C-terminus of ICOS to induce dimerization; Labeled with Alexa488 when used as probe in the flow cytometry on yeast; also called ICOS-Fc dimer protein; ICOS dimer protein; not shown: GS linker of glycine and serine; Fc region (domain) of human IgG antibody
B15: ICOS-L variant Y8 (ligand)
chain: T1 sequence with Q51P, H52N, Y57H, P100Q
B16: ICOS-L variant Y8_H57N (ligand)
chain: T1 sequence with Q51P, H52N, Y57N, P100Q
notes: H57 of Y8 put back to N
B17: ICOS-L variant Y8_P51Q (ligand)
chain: T1 sequence with H52N, Y57H, P100Q
notes: P51 of Y8 put back to Q; keeps N57H only

Legend:
[1] = target: B14; test: ELISA, ICOS-Fc coated, variants serially diluted, anti-His-HRP
[2] = target: B14; test: ELISA, ICOS-Fc coated at 4 ug/ml, ICOS-L variant titrated, anti-His-HRP (x axis printed as PD-L1 CO…ON (nM))
Description: (§1) After washing four times, 50 μl of an anti-His-HRP conjugate was added and reacted at room temperature for 1 hour, and then washed four times. Thereafter, 50 μl of a 1-Step Ultra TMB-ELISA substrate solution (Thermo Fisher Scientific, 34028) was added to develop color, and then added with 50 μl each of 2 M H₂SO₄ to terminate the reaction, and then analyzed using an Epoch microplate spectrophotometer (BioTek).

[3] = target: B14; test: flow cytometry, yeast display, ICOS-Fc-Alexa488 67.7 nM
[4] = substrate: T8, ICOS monomer protein (ICOS E21-H129) (human) (UniProt Q9Y6W8); test: ELISA, ICOS-L-Fc coated, wild-type ICOS serially diluted, anti-His-HRP
T8 sequence (looked up): B13 chain

[5] = target: T1, ICOS-L A184 variant fused to antibody Fc domain (LALAPG) (human); test: ELISA, ICOS-L-Fc coated at 4 ug/ml, His-tagged ICOS monomer titrated, anti-His-HRP
A184 = target: T2, A184; test: flow cytometry of yeast displaying the ICOS-L variant, ICOS-Fc-Alexa488 at 67.7 nM
[6] = target: T3, ICOS-L variant Y13 displayed on yeast (ICOS-L-Aga2-FLAG format) (Homo sapiens (Human)); test: as above
[7] = target: T4, ICOS-L variant Y20 displayed on yeast (ICOS-L-Aga2-FLAG format) (Homo sapiens (Human)); test: as above
[8] = target: T5, ICOS-L variant Y35 displayed on yeast (ICOS-L-Aga2-FLAG format) (Homo sapiens (Human)); test: as above
[9] = target: T6, ICOS-L variant Y48 displayed on yeast (ICOS-L-Aga2-FLAG format) (Homo sapiens (Human)); test: as above
[10] = target: T7, ICOS-L variant Y8 displayed on yeast (ICOS-L-Aga2-FLAG format) (Homo sapiens (Human)); test: as above
[11] = target: B14; test: ELISA, ICOS-Fc coated at 4 ug/ml, ICOS-L variant titrated, anti-His-HRP
Description: as §1

[12] = target: B14; test: bio-layer interferometry (Octet R8), ICOS-Fc captured on Protein A biosensor, 600 s association and 600 s dissociation

Binder: B1
binding [1]: binds
binding [2]: binds

Binder: B2
binding [3]: binds

Binder: B3
binding [1]: binds
binding [2]: binds

Binder: B4
binding [3]: binds

Binder: B5
binding [3]: binds

Binder: B6
binding [1]: binds
binding [2]: binds

Binder: B7
binding [4]: binds

Binder: B8
binding [1]: binds
binding [2]: binds

Binder: B9
binding [4]: binds

Binder: B10
binding [3]: binds

Binder: B11
binding [4]: binds

Binder: B12
binding [3]: binds

Binder: B13
binding [5]: binds

Binder: B14
binding (A184): binds
binding [6]: binds
binding [7]: binds
binding [8]: binds
binding [9]: binds
binding [10]: binds

Binder: B15
binding [1]: binds
binding [11]: binds
binding [12]: binds
binding [2]: binds

Binder: B16
binding [1]: binds
binding [11]: binds
binding [12]: binds

Binder: B17
binding [1]: binds
binding [11]: binds
binding [12]: binds
